Data source: PubChem BioAssay AID1053208 (Peter MacCallum Cancer Centre, 2014)

Aim: 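Find knock-downs that sensitise mouse osteosarcoma cells to doxorubicin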 (primary screen)
System: mouse osteosarcoma cells, early-passage culture from an engineered mouse model of fibroblastic bone tumour
Reagents: siRNA pool against mouse genes, 40 nM
Timing: about 120 h (48 h before drug, then 72 h with drug)
Conditions: doxorubicin 100 nM for 72 h, roughly 30-40% inhibitory dose
Detection: 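Luminescent ATP signal taken as viability with or without 100 nM doxorubicin for 72 h; mean of two wells set against non-targeting siRNA and turned into robust z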
Scale: viability z-score with doxorubicin and doxorubicin viability vs non-targeting: higher = more viable cells under doxorubicin; viability z-score without drug: higher = more viable cells with knock-down alone; z-score of drug to no-drug ratio: higher = less drug sensitisation by knock-down
Hit rule: 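Called active if knock-down leaves viability unchanged without drug (z within -2 to 2) but lowers it with doxorubicin (z at or under -2)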
Here is one part, drawn at random, of about 17,000 reagents. 788 of them (4.7%) were called active. 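Calls rest on z-score classes alone; an extra cut-off of viability at most 70% of control was not applied to them.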 A number with no mark means an inactive call.

target	combined z-score class	viability z-score with doxorubicin	viability z-score without drug	z-score of drug to no-drug ratio	doxorubicin viability vs non-targeting
Foxs1 (forkhead box S1)	no change with or without drug	0.45	1.01	-0.11	0.98
Ace (angiotensin I converting enzyme)	no change with or without drug	0.22	-0.84	1.01	0.96
Zfp689 (zinc finger protein 689)	no change with or without drug	0	0.51	-0.22	0.94
Pi16 (peptidase inhibitor 16)	no change with or without drug	0.11	-0.84	0.9	0.95
Igsf9 (immunoglobulin superfamily, member 9)	no change with or without drug	-0.9	0.51	-1.12	0.86
Polr1g (RNA polymerase I subunit G)	no change with or without drug	-0.9	0.84	-1.35	0.86
Or8k1 (olfactory receptor family 8 subfamily K member 1)	no change with or without drug	-0.67	-1.52	0.45	0.88
Phip (pleckstrin homology domain interacting protein)	no change with or without drug	-0.45	-0.17	-0.22	0.9
Rnf144b (ring finger protein 144B)	no change with or without drug	-0.67	-0.51	-0.22	0.88
Bscl2 (BSCL2 lipid droplet biogenesis associated, seipin)	no change with or without drug	-0.22	0.51	-0.45	0.92
Rtn4r (reticulon 4 receptor)	no change with or without drug	-0.9	-0.67	-0.34	0.86
Hoxd11 (homeobox D11)	no change with or without drug	-0.11	-1.85	1.46	0.93
Or4f53 (olfactory receptor family 4 subfamily F member 53)	no change with or without drug	-1.57	-1.18	-0.79	0.8
Tnfsf8 (tumor necrosis factor (ligand) superfamily, member 8)	no change with or without drug	-1.35	-0.51	-1.01	0.82
Zfp386 (zinc finger protein 386 (Kruppel-like))	no change with or without drug	-0.34	-0.34	0	0.91
Sertm1 (serine rich and transmembrane domain containing 1)	no change with or without drug	1.91	1.85	0.79	1.11
B4galt1	no change with or without drug	0.9	0.51	0.67	1.02
Sema5a	no change with or without drug	-0.22	0	-0.11	0.92
Zfp9 (zinc finger protein 9)	no change with or without drug	-0.22	1.01	-0.79	0.92
Tagap (T cell activation Rho GTPase activating protein)	no change with or without drug	1.01	-0.67	1.69	1.03
Arhgap44 (Rho GTPase activating protein 44)	no change with or without drug	-0.67	-0.34	-0.34	0.88
Atp12a (ATPase, H+/K+ transporting, nongastric, alpha polypeptide)	no change with or without drug	0.45	0	0.56	0.98
Hoxb7 (homeobox B7)	no change with or without drug	-0.67	0.17	-0.67	0.88
Raet1d (retinoic acid early transcript delta)	no change with or without drug	0.67	-1.69	2.25	1
Figla (folliculogenesis specific basic helix-loop-helix)	no change with or without drug	0.11	0.51	-0.11	0.95
Furin (furin, paired basic amino acid cleaving enzyme)	no change with or without drug	-1.35	-1.85	0	0.82
Zmat4 (zinc finger, matrin type 4)	no change with or without drug	-0.67	-0.17	-0.45	0.88
Nfatc3	no change with or without drug	0.67	0.67	0.34	1
Speer4f1 (spermatogenesis associated glutamate (E)-rich protein 4F1)	low cell count with doxorubicin only (active)	-2.02	-0.67	-1.57	0.76
Agxt (alanine-glyoxylate aminotransferase)	no change with or without drug	0.45	-0.51	1.01	0.98
Clcnka (chloride channel, voltage-sensitive Ka)	no change with or without drug	-1.69	-0.17	-1.57	0.79
Sdcbp (syndecan binding protein)	high cell count with doxorubicin only	3.26	1.85	2.02	1.23
Map3k8 (mitogen-activated protein kinase kinase kinase 8)	no change with or without drug	0.22	-0.67	0.79	0.96
Ccdc181 (coiled-coil domain containing 181)	high cell count without drug only	0.79	3.2	-1.01	1.01
